Literature values in patent US20180217129A1, “A Method Of Assessing Protein Modification Status And Identifying Biomarkers Linked To Cell Signaling Pathways” (Queen Mary University of London, priority 2015, published 2018).
At least one compound was matched to its structure with a doubt left.

Test system: off-targets (ChEMBL)
Settings: cited from earlier work

CCc1cncnc1N1CCN(Cc2nc3ccc(C(F)(F)F)cc3[nH]2)CC1 [PF-4708671]
Off-targets from ChEMBL: S6Kα5
